Values of other authors in patent publication US8501405B2, “Real-time sequencing methods and systems” (Pacific Biosciences of California, Inc., priority 2009, dated 2013).
Where two headings read alike, the source gives them in different places.

[1] = DNA polymerases with reverse transcriptase activity, available values for DNA-dependent DNA polymerization

Molecule: E. coli pol I: DNA polymerase with reverse transcriptase activity
- Need primer to initiate [1]: yes

Molecule: phi29: DNA polymerase with reverse transcriptase activity
- Need primer to initiate [1]: yes

B1: Thermus thermophilus: DNA polymerase with reverse transcriptase activity (protein, UniProt P52028 1-834, looked up)
DNA polymerase I, thermostable: MEAMLPLFEPKGRVLLVDGHHLAYRTFFALKGLTTSRGEPVQAVYGFAKSLLKALKEDGYKAVFVVFDAKAPSFRHEAYEAYKAGRAPTPEDFPRQLALIKELVDLLGFTRLEVPGYEADDVLATLAKKAEKEGYEVRILTADRDLYQLVSDRVAVLHPEGHLITPEWLWEKYGLRPEQWVDFRALVGDPSDNLPGVKGIGEKTALKLLKEWGSLENLLKNLDRVKPENVREKIKAHLEDLRLSLELSRVRTDLPLEVDLAQGREPDREGLRAFLERLEFGSLLHEFGLLEAPAPLEEAPWPPPEGAFVGFVLSRPEPMWAELKALAACRDGRVHRAADPLAGLKDLKEVRGLLAKDLAVLASREGLDLVPGDDPMLLAYLLDPSNTTPEGVARRYGGEWTEDAAHRALLSERLHRNLLKRLEGEEKLLWLYHEVEKPLSRVLAHMEATGVRLDVAYLQALSLELAEEIRRLEEEVFRLAGHPFNLNSRDQLERVLFDELRLPALGKTQKTGKRSTSAAVLEALREAHPIVEKILQHRELTKLKNTYVDPLPSLVHPRTGRLHTRFNQTATATGRLSSSDPNLQNIPVRTPLGQRIRRAFVAEAGWALVALDYSQIELRVLAHLSGDENLIRVFQEGKDIHTQTASWMFGVPPEAVDPLMRRAAKTVNFGVLYGMSAHRLSQELAIPYEEAVAFIERYFQSFPKVRAWIEKTLEEGRKRGYVETLFGRRRYVPDLNARVKSVREAAERMAFNMPVQGTAADLMKLAMVKLFPRLREMGARMLLQVHDELLLEAPQARAEEVAALAKEAMEKAYPLAVPLEVEVGMGEDWLSAKG
- Need primer to initiate [1]: yes

B2: phi6: RNA-dependent RNA polymerase (protein, UniProt P11124 2-665, looked up)
RNA-directed RNA polymerase: PRRAPAFPLSDIKAQMLFANNIKAQQASKRSFKEGAIETYEGLLSVDPRFLSFKNELSRYLTDHFPANVDEYGRVYGNGVRTNFFGMRHMNGFPMIPATWPLASNLKKRADADLADGPVSERDNLLFRAAVRLMFSDLEPVPLKIRKGSSTCIPYFSNDMGTKIEIAERALEKAEEAGNLMLQGKFDDAYQLHQMGGAYYVVYRAQSTDAITLDPKTGKFVSKDRMVADFEYAVTGGEQGSLFAASKDASRLKEQYGIDVPDGFFCERRRTAMGGPFALNAPIMAVAQPVRNKIYSKYAYTFHHTTRLNKEEKVKEWSLCVATDVSDHDTFWPGWLRDLICDELLNMGYAPWWVKLFETSLKLPVYVGAPAPEQGHTLLGDPSNPDLEVGLSSGQGATDLMGTLLMSITYLVMQLDHTAPHLNSRIKDMPSACRFLDSYWQGHEEIRQISKSDDAILGWTKGRALVGGHRLFEMLKEGKVNPSPYMKISYEHGGAFLGDILLYDSRREPGSAIFVGNINSMLNNQFSPEYGVQSGVRDRSKRKRPFPGLAWASMKDTYGACPIYSDVLEAIERCWWNAFGESYRAYREDMLKRDTLELSRYVASMARQAGLAELTPIDLEVLADPNKLQYKWTEADVSANIHEVLMHGVSVEKTERFLRSVMPR
- Need primer to initiate (reverse transcriptases and RNA-dependent RNA polymerases): no
